Experimental data reported in paper PMC8189435, “Timer-based proteomic profiling of the ubiquitin-proteasome system reveals a substrate receptor of the GID ubiquitin ligase” (Molecular Cell, 2021).
Results are given in words; binding and its absence hold for the method and conditions named. In cells and extracts the contact can be indirect. Some entries that bind do so weakly or less than the wild type. Sequences can lack the tags named with a protein.

T1: Gid1-tFT (chromosomally tagged Gid1-mCherry-sfGFP) (S. cerevisiae) (UniProt P53076)
T1 sequence: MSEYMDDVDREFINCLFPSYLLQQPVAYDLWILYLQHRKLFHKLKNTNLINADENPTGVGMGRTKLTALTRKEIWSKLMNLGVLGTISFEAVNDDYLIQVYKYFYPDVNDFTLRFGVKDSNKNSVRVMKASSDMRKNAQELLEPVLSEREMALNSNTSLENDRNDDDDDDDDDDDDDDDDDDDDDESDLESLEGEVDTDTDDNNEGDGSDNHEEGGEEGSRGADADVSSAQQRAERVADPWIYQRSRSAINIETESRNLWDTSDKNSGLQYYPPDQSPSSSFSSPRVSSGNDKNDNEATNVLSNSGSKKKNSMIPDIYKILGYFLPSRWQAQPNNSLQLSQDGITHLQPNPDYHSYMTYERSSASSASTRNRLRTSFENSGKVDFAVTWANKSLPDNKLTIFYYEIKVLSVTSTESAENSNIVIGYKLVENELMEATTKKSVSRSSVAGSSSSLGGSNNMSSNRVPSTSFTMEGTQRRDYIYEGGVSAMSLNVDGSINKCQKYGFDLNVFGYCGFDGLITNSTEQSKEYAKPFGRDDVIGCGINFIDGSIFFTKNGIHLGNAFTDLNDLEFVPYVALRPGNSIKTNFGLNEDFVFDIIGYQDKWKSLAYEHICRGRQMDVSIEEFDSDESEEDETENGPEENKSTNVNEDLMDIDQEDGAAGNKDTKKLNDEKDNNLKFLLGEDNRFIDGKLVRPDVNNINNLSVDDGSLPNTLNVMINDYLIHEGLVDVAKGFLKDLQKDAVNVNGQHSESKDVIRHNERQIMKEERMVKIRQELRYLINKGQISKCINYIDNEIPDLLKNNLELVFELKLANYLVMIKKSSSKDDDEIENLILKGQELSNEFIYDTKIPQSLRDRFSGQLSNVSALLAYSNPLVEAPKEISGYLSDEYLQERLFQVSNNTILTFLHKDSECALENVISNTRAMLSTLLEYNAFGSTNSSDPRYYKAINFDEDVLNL


Target: T1, Gid1-tFT (chromosomally tagged Gid1-mCherry-sfGFP) (S. cerevisiae)
Assay: co-IP; tFT-tagged bait precipitated with rabbit anti-GFP on Dynabeads from yeast lysates (log phase, SC medium lacking histidine, 2% glucose); IP buffer 50 mM Tris-HCl pH 7.5, 100 mM NaCl, 1% Triton X-100, 2 mM EDTA; 2 h at 4°C; HA-tagged prey detected by anti-HA blot; WT or gid5Δ cells

Row | binding | Binder
1 | binds | HA-Gid11 (Ylr149c/Gid11) (natural protein, S. cerevisiae, UniProt Q99296 1-730, looked up, Gid11 (Ylr149c), S. cerevisiae, WD40/YVTN repeat-like domain protein; the last 4 residues are printed as 727-730, so the protein ends at residue 730; also called HA-YLR149C; source: S. cerevisiae, overexpressed from plasmid pRS413-GPDpr-HA-YLR149C, in lysate; not shown: HA, N-terminal, kept) MTIDGTGQSKEALQDERLNTGSDKVYQNYMMPALELYDAKVSINHWQLRDCIKPGSMNQSKLYYIYDHSIRVLDTDSSVLRSPVRRHNSIQPSNSGKNSTEKTSTKGSRTTGSYISKNLHVPSEKLVEFNFKPRCFTELNGLTVCGGLIGSDDKGFPSNWNRLAQDANISLPPPSQPINISKNISFPINSHYSNPNIWKGIVEFYNQETDTMMTFTLGQFINNCVTLYDRASMQFDLFACNNDGHLYQCDVSNRDVTLVKRYADLKFPLNNASLSHDGQTMVVSGDSNKFAVYNQNELTNQFSLHYDNHPSWGSSVNRVRRIPRFALPDESEYIENIYEAPNSDHGFYNSFSENDLQFATVFQNGTCAIYDIRNMATPMAEISSTRPHSHNGAFRVCRFSYGLDDLLFISEHQGRVHVVDTRNYVNHQVIVIPDKVNMEYINERKHNTNHNFTTNNNNENESNDSKNELQGADYRSLSRRRFSLPSMPNVTTEPWITMAQRIPKKYLEPQILPFPKVMDKISNESVLFSTKGSSSSDVAHPYKRRCSFRVRRVSTSAPTADYSNNNVNASLGTPAADSIATSSSNSAPQNLIDPLILSHQQASNDVFEDDEYYEAYNDVHSTYRVSSDYHGVSARAFESFLRPPSTPDLPSDDDNFAANSRNNRGTSNFLRRPVITTQESNEFSEENNISGIDWVEDRNGSSLIIGTDYGIMRWNINSWARRSFSSYDLC
2 | binds | IMRWNINSWARRSFSSYDLC (domain or fragment, UniProt Q99296 711-730) [HA-Luc-Gid11^C20 (last 20 residues of Gid11 fused to luciferase)]
